According to patent US5407916A, “Neurotensin mimetics as central nervous system agents” (Warner-Lambert Company, priority 1993, dated 1995):
Structures can show the parent of a compound that is named as a salt. At least one peptide structure holds a part that was inferred or is arguable (an end, a ring closure or a residue). Numbered stars: 1 amine (or outer) side, 2 acyl side, 3 side chain; on linkers, the order of the positions; unused ones are H or OH. Square brackets hold non-standard residues; d marks the D form. Peptide text beside a SMILES is read from it. * marks the point of attachment. X2 = N=C(N)NCCC[C@H](N)CN([C@@H](CCCCN)C(=O)[*:2])[*:1]; X1 = NCCCC[C@H](N)CN([C@@H](CCCCN)C(=O)[*:2])[*:1]; Tle = CC(C)(C)[C@H](N)C(=O)O; X5 = NCCCC(CCCN)C(=O)*

Experiments:
Type in all cases: in vivo
[1] = system: acetic acid-induced writhing in mice; experiment: Acetic acid-induced writhing in the mouse; conditions: IP
[2] = system: locomotor activity in mice; experiment: Inhibition of locomotor activity in mice; conditions: IP, unmarked footnote: Not active at 10 mg/kg
[3] = system: rat tail pressure; experiment: Rat tail pressure test; conditions: NA** = Not active at 3 mg/kg

SMILES | Inhibition of Acetic Acid-Induced Writhing in Mice ED50 [1] [mg/kg] | Inhibition of Locomotor Activity in Mice ED50 [2] [mg/kg] | Rat Tail Pressure Protocol in Rats ED50 [3] [mg/kg]
CCOC(=O)[C@H](CC(C)C)NC(=O)[C@@H](NC(=O)[C@H](Cc1c[nH]c2ccccc12)NC(=O)[C@@H]1CCCN1C(=O)[C@H](CCCCN)NC[C@@H](N)CCCNC(=N)N)C(C)(C)C [Example 1, L-Leucine, N-[N-[N-[1-[N^2-[2-amino-5-[aminoimimomethyl)amino]-pentyl -L-lysyl]-L-prolyl-L-tryptophyl]-3-methyl-L-valyl]-, ethyl ester, (S)-, trifluoroacetate (1:3) (salt)] (H-[X2]PW[Tle]L-OEt) | 0.1 | 0.17 | 0.3
CC(C)C[C@H](NC(=O)[C@@H](NC(=O)[C@H](Cc1c[nH]c2ccccc12)NC(=O)[C@@H]1CCCN1C(=O)[C@H](CCCCN)NC[C@@H](N)CCCNC(=N)N)C(C)(C)C)C(=O)O [Example 2, L-Leucine, N-[N-[N-[1-[N^2-[2-amino-5-[(aminoiminomethyl)amino]pentyl]-L-lysyl]-L-prolyl]-L-tryptophyl]-3-methyl-L-valyl]-, (S)-, trifluoroacetate (1:2) salt)] (H-[X2]PW[Tle]L-OH) | 0.1 | 0.48 | 
CCOC(=O)[C@H](CC(C)C)NC(=O)[C@@H](NC(=O)[C@H](Cc1c[nH]c2ccccc12)NC(=O)[C@@H]1CCCN1C(=O)[C@H](CCCCN)NC[C@@H](N)CCCCN)C(C)(C)C [Example 3, L-Leucine, N-[N-[N-[1-[N^2-(2,6-diaminohexyl)-L-lysyl]-L-prolyl]-L-tryptophyl]-3-methyl-L-valyl]-, ethyl ester, (S)-] (H-[X1]PW[Tle]L-OEt) | 0.06 | 0.2 | 
CC(C)C[C@H](NC(=O)[C@@H](NC(=O)[C@H](Cc1c[nH]c2ccccc12)NC(=O)[C@@H]1CCCN1C(=O)[C@H](CCCCN)NC[C@@H](N)CCCCN)C(C)(C)C)C(=O)O [Example 4, L-Leucine, N-[N-[N-[1-[N^2-(2 6-diaminohexyl)-L-lysyl]-L-prolyl]0L-tryptophyl]-3-methyl-L-valyl]-,(S)- , trifluroacetate (1:3) (salt)] (H-[X1]PW[Tle]L-OH) | 0.06 | 0.14 | 
CC(C)C[C@H](NC(=O)[C@@H](NC(=O)[C@H](Cc1c[nH]c2ccccc12)NC(=O)[C@@H]1CCCN1C(=O)C(CCCN)CCCN)C(C)(C)C)C(=O)O [Example 8, L-Leucine, N-[N-[N-[1-[Bis (3-aminopropyl)acetyl]-L-prolyl]-L-tryptophyl]-3-methyl-L-valyl]-,(S)-,trifluoroacetate (1:2) salt] (X5-PW[Tle]L-OH) |  | 0.5 | 
